According to publication PMC8643683, “Loss of full-length hnRNP R isoform impairs DNA damage response in motoneurons by inhibiting Yb1 recruitment to chromatin” (Nucleic Acids Research, 2021):
Results are given in words; binding and its absence hold for the method and conditions named. Binding seen in cells or lysates may run through a third protein. Some results given as binding are weak or reduced against the parent protein; the word gives no strength. For part of these data: Tags and fused reporters may be left off the sequences shown.

Sequences of proteins named here, by UniProt entry; tags and fusion partners are left off.
UniProt P62960: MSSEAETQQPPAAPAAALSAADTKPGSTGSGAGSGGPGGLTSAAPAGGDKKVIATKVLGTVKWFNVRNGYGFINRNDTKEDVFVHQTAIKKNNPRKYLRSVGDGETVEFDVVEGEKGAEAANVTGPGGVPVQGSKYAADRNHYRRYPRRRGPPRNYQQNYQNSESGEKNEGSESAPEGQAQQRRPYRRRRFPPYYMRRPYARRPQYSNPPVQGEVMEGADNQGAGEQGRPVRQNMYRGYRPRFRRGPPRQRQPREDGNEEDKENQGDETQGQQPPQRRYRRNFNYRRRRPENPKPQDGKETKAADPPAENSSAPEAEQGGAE
UniProt P67809: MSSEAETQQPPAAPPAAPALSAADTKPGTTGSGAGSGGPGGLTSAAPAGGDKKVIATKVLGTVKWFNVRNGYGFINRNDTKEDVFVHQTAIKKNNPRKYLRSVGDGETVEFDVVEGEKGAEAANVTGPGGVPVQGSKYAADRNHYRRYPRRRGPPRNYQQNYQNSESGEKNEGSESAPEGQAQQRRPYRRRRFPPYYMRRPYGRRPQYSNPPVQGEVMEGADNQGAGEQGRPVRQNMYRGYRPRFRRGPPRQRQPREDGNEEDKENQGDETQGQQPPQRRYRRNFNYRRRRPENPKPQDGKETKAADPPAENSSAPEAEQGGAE

T1: HA-tagged hnRNP R-FL (mouse) (UniProt Q8VHM5)
T1 sequence: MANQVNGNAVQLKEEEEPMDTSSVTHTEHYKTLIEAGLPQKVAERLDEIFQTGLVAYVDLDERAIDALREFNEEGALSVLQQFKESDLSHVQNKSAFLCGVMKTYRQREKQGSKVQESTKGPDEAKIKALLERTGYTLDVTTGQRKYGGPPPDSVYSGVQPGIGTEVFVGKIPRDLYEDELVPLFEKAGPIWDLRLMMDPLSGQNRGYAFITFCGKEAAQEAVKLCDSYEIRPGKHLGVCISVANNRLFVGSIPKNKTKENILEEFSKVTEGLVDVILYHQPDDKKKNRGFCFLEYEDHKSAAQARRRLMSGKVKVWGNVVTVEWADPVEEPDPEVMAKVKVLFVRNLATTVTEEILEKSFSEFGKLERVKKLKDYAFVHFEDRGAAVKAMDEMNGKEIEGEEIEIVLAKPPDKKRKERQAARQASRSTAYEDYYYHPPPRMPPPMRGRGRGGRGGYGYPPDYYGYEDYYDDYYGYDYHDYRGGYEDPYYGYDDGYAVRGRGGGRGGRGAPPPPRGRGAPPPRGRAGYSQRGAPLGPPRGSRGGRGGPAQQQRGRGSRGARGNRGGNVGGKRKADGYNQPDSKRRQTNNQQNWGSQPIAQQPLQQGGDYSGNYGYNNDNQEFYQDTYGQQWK


Tests used:
[1] = molecular target: T1, HA-tagged hnRNP R-FL (mouse); experiment: co-IP; anti-HA beads, lysates of HEK293TN cells transfected with HA-tagged hnRNP R isoforms or deletion mutants; western blot for Yb1 and HA
[2] = molecular target: Y-box binding protein 1 (Yb1), endogenous mouse (mouse (endogenous in primary mouse motoneurons and NSC-34 cells)) (UniProt P62960); experiment: co-IP; Yb1 immunoprecipitated (sc-101198) from lysates of NSC-34 cells, 0 Gy or 9 Gy, in the absence of Benzonase; western blot for hnRNP R
[3] = molecular target: Y-box binding protein 1 (Yb1), endogenous mouse (mouse (endogenous in primary mouse motoneurons and NSC-34 cells)) (UniProt P62960); experiment: co-IP; Yb1 (sc-101198) or γ-H2AX (clone JBW301) immunoprecipitated on protein A or G Dynabeads from whole lysates of NSC-34 cells, 0 Gy or 9 Gy; IP lysis buffer (50 mM Tris-HCl pH 7.4, 140 mM NaCl, 1% Triton X-100) with 1 U Benzonase, overnight at 4°C; western blot

Row | binding [1] | binding [2] | binding [3] | Molecule
1 | binds |  |  | Y-box binding protein 1 (Yb1), endogenous in HEK293TN cells (from UniProt P67809 1-324)
2 |  | binds | binds | hnRNP R-FL (full-length hnRNP R isoform), endogenous (natural protein, mouse (endogenous in NSC-34), UniProt Q8VHM5 1-632, looked up, hnRNP R, mouse, full-length 632-amino acid protein encoded by transcript variant 1, translated from the AUG in exon 2; source: endogenous, NSC-34 lysate) MANQVNGNAVQLKEEEEPMDTSSVTHTEHYKTLIEAGLPQKVAERLDEIFQTGLVAYVDLDERAIDALREFNEEGALSVLQQFKESDLSHVQNKSAFLCGVMKTYRQREKQGSKVQESTKGPDEAKIKALLERTGYTLDVTTGQRKYGGPPPDSVYSGVQPGIGTEVFVGKIPRDLYEDELVPLFEKAGPIWDLRLMMDPLSGQNRGYAFITFCGKEAAQEAVKLCDSYEIRPGKHLGVCISVANNRLFVGSIPKNKTKENILEEFSKVTEGLVDVILYHQPDDKKKNRGFCFLEYEDHKSAAQARRRLMSGKVKVWGNVVTVEWADPVEEPDPEVMAKVKVLFVRNLATTVTEEILEKSFSEFGKLERVKKLKDYAFVHFEDRGAAVKAMDEMNGKEIEGEEIEIVLAKPPDKKRKERQAARQASRSTAYEDYYYHPPPRMPPPMRGRGRGGRGGYGYPPDYYGYEDYYDDYYGYDYHDYRGGYEDPYYGYDDGYAVRGRGGGRGGRGAPPPPRGRGAPPPRGRAGYSQRGAPLGPPRGSRGGRGGPAQQQRGRGSRGARGNRGGNVGGKRKADGYNQPDSKRRQTNNQQNWGSQPIAQQPLQQGGDYSGNYGYNNDNQEFYQDTYGQQWK
